Assay results from publication PMC9589693.
No constants are given. Whether binding was seen depends on the method and setting.

Sequences of proteins named here, by UniProt entry; tags and fusion partners are left off. Residues count along the entry.
UniProt P29324, residues 772-926: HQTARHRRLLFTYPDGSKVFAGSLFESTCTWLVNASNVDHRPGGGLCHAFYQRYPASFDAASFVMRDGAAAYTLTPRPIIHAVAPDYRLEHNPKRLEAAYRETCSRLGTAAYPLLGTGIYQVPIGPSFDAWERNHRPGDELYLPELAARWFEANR

Key:
[1] = target: Hepatitis E virus macro domain (Hepatitis E virus) (UniProt P29324); assay: SEC; Superdex Increase 75 10/300 GL, 10 mM sodium acetate, 5 mM EDTA, pH 5.4; elution according to molecular weight; both purified
[2] = target: Hepatitis E virus macro domain (Hepatitis E virus) (UniProt P29324); assay: condition: 0.4 mM (apo form), 0.5 mM (ADP-ribose bound form); NMR 1H-15N HSQC (signal dispersion and line widths); 0.4 mM apo form and 0.5 mM with ADP-ribose at 1:10; 10 mM sodium acetate, 5 mM EDTA, pH 5.4, 298 K, 700 MHz; both purified

Substance: Hepatitis E virus macro domain (from UniProt P29324 772-926) (domain or fragment)
- binding [1]: no binding
- binding [2]: no binding
